# In PubChem BioAssay AID1347423 (Functional Genomics Laboratory (NCATS/FGL), 2020):
# The campaign covered roughly 52,000 sequences. About 210 (0.4%) were called active.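 How the source made its calls: active means gene whose silencing raises cell survival under the drug, median off-target-corrected z-score across its silencing RNAs 2 or more; inactive means the rest.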 The list shows a part of the results.
# Test: Resistance to Poly (ADP-Ribose) Polymerase inhibitor: Gene Identification via Genome-wide siRNA Screen
# Settings: mouse BRCA2 R2336H ES cells, olaparib, CellTiter-Glo viability; active compounds read high
# Summary of the method: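 Genome-wide siRNA screen (3 siRNAs/gene, 20 nM) in mouse ES cells carrying hypomorphic BRCA2 R2336H; olaparib 500 nM added 48 h post-transfection, CellTiter-Glo viability 72 h later. Normalized to plate-median negative control; MAD z-scores, gene median, seed-adjusted.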
row,Sequence,z-score
1,GGAGAAAAAACUAAAGGAGTT against Abca3,inactive: 1.28
2,GAGGCUGUUAGAGAAAACGTT against Frat2,inactive: -0.497
3,GGAACUGAGCCAAGAAGCUTT against 1700058C01Rik,inactive: -0.232
4,GGAGGCUCAAGUCCAUCACTT against A930104D05Rik,inactive: 0.023
5,GGAUUUUCCUGAUGAGGUUTT against Cdk5rap1,inactive: -1.89
6,GCCAGACUUUGUUUUUGCUTT against BC061212,inactive: -0.31
7,GGCAGUAGCAUUUAGAAGGTT against Socs3,inactive: 0.307
8,GCACAUUGAUGCUUAAACGTT against 2310014H19Rik,inactive: -1.69
9,GGCUUUCAAGCUAACUGAUTT against Sf3b2,inactive: -3.27
10,GUGCAGGUCCUAAUCUGAATT against Asb1,inactive: -2.07
11,GCUUGAGUUGGACCUUCACTT against A930031F18Rik,inactive: 1.27
12,GCCAGCAACAGGAUGAUAUTT against Prkwnk1,inactive: -1.02
13,GGCUGUUCUACGAAGAAAATT against 4921517D22Rik,inactive: -0.442
14,GCUCAAAUAACUCCACCACTT against Pola1,inactive: -1.11
15,CCGGCUCAUCCAUUAUUGGTT against Atp6v0b,inactive: -0.185
16,GGUUUUCUACAGGAGAGACTT against 9430015G10Rik,inactive: 2.39
17,GUAGAGGUUAUAUAGCAGATT against Ms4a6d,inactive: 0.457
18,CCUAUACCGAGCAAACAUCTT against Crebbp,inactive: 1.14
19,GGCAACUUGCUCAUCAUUGTT against Olfr1356,inactive: 0.57
20,GCUCACCACGCUAAACUGUTT against Trpm6,inactive: 0.68
21,GGAGGACUGCCAGAAAUACTT against Myd88,inactive: 1.63
22,CCUACAUCCUCGCUUUUGCTT against Ptcd2,inactive: -0.0113
23,GGAGGCCCAAUGAUUAGCATT against Ntan1,inactive: -1.55
24,GGACACUUCCAUGUGCUACTT against 1500031L02Rik,inactive: 0.526
25,GGAUUCACACCGUGAAGGUTT against AI256775,inactive: 0.231
26,CCAAGUUCUCAUGGUUCUGTT against Serpina3k,inactive: -1.59

# A run of entries from the list above:
row,Sequence,z-score
20,GCUCACCACGCUAAACUGUTT against Trpm6,inactive: 0.68
21,GGAGGACUGCCAGAAAUACTT against Myd88,inactive: 1.63
22,CCUACAUCCUCGCUUUUGCTT against Ptcd2,inactive: -0.0113
23,GGAGGCCCAAUGAUUAGCATT against Ntan1,inactive: -1.55
24,GGACACUUCCAUGUGCUACTT against 1500031L02Rik,inactive: 0.526

# Continuation:

row,Sequence,z-score
1,GCCCUGAACUACCUAGAAATT against Alg5,inactive: -0.585
2,CCAUCAAUUUGGAGACUAUTT against Cav1,inactive: -1.07
3,GGAACAUGUUUAUAUGGUATT against Iigp1,inactive: 0.979
4,GGGAUUUACACUCACUCCUTT against Tle2,inactive: 0.0573
5,GGAAUUGUCUAAAUUGGCUTT against Hoxd1,inactive: 1.63
6,GGCAUCUCCACCUUUUCAUTT against Abcc9,inactive: 1.66
7,GGUUAUCCUGUUACAGUACTT against 2610039E05Rik,inactive: -1.58
8,GGAAUUCAAAACCUUCUAUTT against Rai14,inactive: -0.067
9,GGAGAGCUCCUAUAAUCCUTT against Plau,inactive: -0.657
10,CCCAAAUAACAGAGAAAUGTT against Siat8f,inactive: 3.16
11,GCUGUUGAUUGUAAGCAAUTT against Mtap,inactive: 0.21
12,GCGUAUCUUCAACGUGGGATT against 9130227C08Rik,inactive: 0.104
13,CCAGUUCAGAGAUUAUCUUTT against Olfr826,inactive: 0.032
14,GGAGGAGAAGAAACACCUGTT against Kns2,inactive: 0.627
15,GGCACUCCUGAUGUUCUCUTT against Cyb561d2,inactive: -0.852
16,AAGAGCCAUUAAUCGAGAATT against Cklf,inactive: -0.618
17,GGUGGAAGCUAGAAACCUATT against Cpne1,inactive: 1.28
18,GGGAAAAGCAAACACUAAUTT against C1d,inactive: 1.58
19,GGCUGAGAUCUGAAAUUGATT against Krt2-5,inactive: 0.59
20,GGGAUGCUUUGUUGCUGUUTT against Olfr836,inactive: -0.872
21,CGCGUAGAUAAGAAGUAUUTT against Anks1,inactive: 0.276
22,GAGGGAAACUAUUCUAGACTT against 1700113O17Rik,inactive: -0.763
23,GCUGAGGUAUUCAUUAUAGTT against LOC260408,inactive: 1.33
24,GGUUUUUAUACUCUGGGAUTT against Elavl1,inactive: 2.57
25,CCAUAGGUUUCGGCAUGACTT against Kcnk12,inactive: -0.356
26,GGAUGAGGACAAACACGUGTT against 1810023B24Rik,inactive: -0.497

row,Sequence,z-score
1,CCUCAUCAAGACCUACAAGTT against Dyrk1b,inactive: 0.575
2,GGAUAUGCUGUGAAGUAUUTT against Plekhf2,inactive: -0.892
3,GGAAGAUGCGCUUUCACAUTT against BC049816,inactive: -0.0215
4,GCAUACAAUCAUGUAAGAGTT against Adprh,inactive: 0.333
5,GGACCGAGUACACCAUGAGTT against Calu,inactive: 1.56
6,GCCUAGCAUUCUUGUGCAATT against 1700093K21Rik,inactive: 0.598
7,GCAAAAUGAGAUAGAUCGUTT against Nxf,inactive: 0.322
8,GGCCGCAUACUGAUGAAAGTT against Scgn,inactive: 0.642
9,GAAGACUUCAAUCAACCAGTT against Trim6,inactive: -1.32
10,GGACUUCAUGGCUAGUUUCTT against B4galt4,inactive: -1.11
11,GCAUUACACUUAACUGACGTT against 9530033F24Rik,inactive: 0.082
12,GCUAUUCGGCUAAAGCAGCTT against Etfdh,inactive: -0.272
13,CCGGCUAAUACUGUUGUGGTT against 0610009C03Rik,inactive: -0.821
14,GCAUGACAGUCAACACAAGTT against 4930471M23Rik,inactive: 0.21
15,GGUAGUUAACACAAAAUUGTT against 4932438H23Rik,inactive: 1.1
16,GGGCACCAUCAACAUGAACTT against AA536749,inactive: 0.0864
17,GGAGUCCCAAACCUUCUCATT against Spata3,inactive: -0.208
18,CCUGGUAUACGUUUACAAUTT against Lama4,inactive: 0.457
19,GGGCUUCACUCCACUGCAUTT against G431002C21Rik,inactive: -0.236
20,GCUCAUAAAAUGGCUACUGTT against LOC406217,inactive: -0.269
21,CGGUGGAAAUACCAGGAUGTT against Tshb,inactive: 2.17
22,GCCCACCAUGUCGUAUGUGTT against Hils1,inactive: -0.142
23,GGAACUCAAACUUUUCGUATT against Mtap1b,inactive: -0.379
24,GGAUUGAAGUCCCUUUACUTT against Zdhhc16,inactive: 0.352
25,GCUGUACCCAUCUGAUCACTT against Galntl2,inactive: 0.7
26,CGAUAUCUUACUUCUUUUGTT against E030011O05Rik,inactive: 0.994

row,Sequence,z-score
1,GCUAUUAAUAUCCUGGUCCTT against Slc7a2,inactive: 0.272
2,GGUUCCUCUCAAUUCCACCTT against Cav3,inactive: 0.0199
3,GGAUCUGGAGCAGCUUCAGTT against 2810471M23Rik,inactive: -1.7
4,GGUAUUUAUGAAGCACACATT against Clcn3,inactive: -0.0226
5,GGUGUCUGCCAGGAGAAAUTT against Dexi,inactive: -1.33
6,GAAUCUCCAUUCUCCCAUGTT against Olfr1301,inactive: -0.311
7,GGGUUUUUUCCAGUCAUCUTT against Nfx1,inactive: -0.19
8,GGAGAAAAAGUAAAUGGUGTT against Psmd7,inactive: -2.08
9,GAAUAUGGAGGCACCAAAGTT against Hspe1,inactive: 0.0238
10,CGUGUUGACUUGUAUUUGUTT against C630002M10Rik,inactive: 0.592
11,GGUGGCAUUAAGGAAAUCATT against Olfr147,inactive: 0.568
12,GGUGCAAUCGUGUUGAGCUTT against Dap3,inactive: 0.349
13,GGUUCUGAAAUGCAUGGAGTT against 1200013I08Rik,inactive: 0.19
14,CCCAUCACUUUAACCAAAGTT against 1110001P11Rik,inactive: 0.3
15,GGGAUCAUGUAAAUUCCACTT against Pde9a,inactive: -0.428
16,GGCACACAUUUUCAAGGGCTT against 1200003E16Rik,inactive: 0.063
17,GGAGAAGAAACGGAAAUGATT against 5830427H10Rik,inactive: 0.173
18,GCGAUCAAAAAAGUUGCCUTT against AU040829,inactive: -0.328
19,GGAGUUAUUCUGUUCUCUCTT against 4930563A03Rik,inactive: 1.96
20,GGACAGUUCAAUGAGGACATT against Arl10b,inactive: -2
21,GCCCAUCGAUCCUAAGGAATT against Ccrn4l,inactive: 2.38
22,GGGAAAUUAUUACCAAAAGTT against BC004022,inactive: 0.508
23,CCCAUGAUGCCAUCUUUAATT against 2410002F23Rik,inactive: -1.28
24,GCAUUGUUUGGGAAUGCCCTT against Olfr1396,inactive: 0.246
25,GGUUUGACUGUCAGUAUUUTT against Cds1,inactive: -0.173
